Laboratory results from publication PMC13164374.
No constants are given. Whether binding was seen depends on the method and setting. In cells and extracts the contact can be indirect. Some results given as binding are weak or reduced against the parent protein; the word gives no strength. Where a sequence is shown, tags or fusion partners need not be part of it.

Chains of the proteins cited; added tags and fusions are not shown.
UniProt Q99729: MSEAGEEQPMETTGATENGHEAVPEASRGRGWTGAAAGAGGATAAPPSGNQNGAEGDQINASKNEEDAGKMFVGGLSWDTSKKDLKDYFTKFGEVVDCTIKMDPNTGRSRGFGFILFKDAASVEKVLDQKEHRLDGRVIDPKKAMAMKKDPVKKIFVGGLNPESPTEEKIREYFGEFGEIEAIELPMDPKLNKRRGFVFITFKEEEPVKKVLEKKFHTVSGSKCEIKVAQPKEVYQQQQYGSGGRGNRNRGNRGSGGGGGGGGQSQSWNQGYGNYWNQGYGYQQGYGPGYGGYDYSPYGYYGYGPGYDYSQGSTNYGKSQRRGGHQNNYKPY

B1: HNRNPL (protein, UniProt P14866 1-589)
chain: MSRRLLPRAEKRRRRLEQRQQPDEQRRRSGAMVKMAAAGGGGGGGRYYGGGSEGGRAPKRLKTDNAGDQHGGGGGGGGGAGAAGGGGGGENYDDPHKTPASPVVHIRGLIDGVVEADLVEALQEFGPISYVVVMPKKRQALVEFEDVLGACNAVNYAADNQIYIAGHPAFVNYSTSQKISRPGDSDDSRSVNSVLLFTILNPIYSITTDVLYTICNPCGPVQRIVIFRKNGVQAMVEFDSVQSAQRAKASLNGADIYSGCCTLKIEYAKPTRLNVFKNDQDTWDYTNPNLSGQGDPGSNPNKRQRQPPLLGDHPAEYGGPHGGYHSHYHDEGYGPPPPHYEGRRMGPPVGGHRRGPSRYGPQYGHPPPPPPPPEYGPHADSPVLMVYGLDQSKMNCDRVFNVFCLYGNVEKVKFMKSKPGAAMVEMADGYAVDRAITHLNNNFMFGQKLNVCVSKQPAIMPGQSYGLEDGSCSYKDFSESRNNRFSTPEQAAKNRIQHPSNVLHFFNAPLEVTEENFFEICDELGVKRPSSVKVFSGKSERSSSGLLEWESKSDALETLGFLNHYQMKNPNGPYPYTLKLCFSTAQHAS

Molecular target: T1, GFP-tagged ADAR1p110 (UniProt P55265)
T1 sequence: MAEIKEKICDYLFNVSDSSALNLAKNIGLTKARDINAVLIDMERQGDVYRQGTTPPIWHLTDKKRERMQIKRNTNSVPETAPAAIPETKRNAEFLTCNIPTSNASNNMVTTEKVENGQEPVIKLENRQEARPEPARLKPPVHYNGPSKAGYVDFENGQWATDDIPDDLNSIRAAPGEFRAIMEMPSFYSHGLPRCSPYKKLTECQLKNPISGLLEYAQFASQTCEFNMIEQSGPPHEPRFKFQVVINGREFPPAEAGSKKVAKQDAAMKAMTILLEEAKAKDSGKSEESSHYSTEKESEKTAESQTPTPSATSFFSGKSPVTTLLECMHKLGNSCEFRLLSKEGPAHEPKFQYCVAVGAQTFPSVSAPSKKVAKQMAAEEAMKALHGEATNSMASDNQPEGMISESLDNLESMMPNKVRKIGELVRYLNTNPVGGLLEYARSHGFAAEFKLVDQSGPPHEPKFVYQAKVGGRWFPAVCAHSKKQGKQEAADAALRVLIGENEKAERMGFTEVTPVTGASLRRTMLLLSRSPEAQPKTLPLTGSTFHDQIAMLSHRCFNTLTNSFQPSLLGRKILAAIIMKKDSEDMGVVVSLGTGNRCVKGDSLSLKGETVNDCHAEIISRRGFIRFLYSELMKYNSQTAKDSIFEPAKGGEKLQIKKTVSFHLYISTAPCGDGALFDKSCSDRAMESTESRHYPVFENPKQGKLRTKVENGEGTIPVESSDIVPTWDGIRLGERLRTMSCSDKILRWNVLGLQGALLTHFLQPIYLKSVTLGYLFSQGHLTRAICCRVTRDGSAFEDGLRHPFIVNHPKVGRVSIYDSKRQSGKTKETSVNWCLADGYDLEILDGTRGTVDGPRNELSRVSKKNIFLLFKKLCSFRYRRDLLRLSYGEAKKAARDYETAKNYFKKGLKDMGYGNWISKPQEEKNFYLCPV
Assay: co-IP; GFP-trap beads on lysate of HeLa cells overexpressing ADAR1p110-GFP or GFP; lysis buffer 10 mM Tris/Cl pH 7.5, 150 mM NaCl, 0.5 mM EDTA, 0.5% Triton X, with 250 units Benzonase; 4 h at 4 °C; beads boiled; Western blot

Row | Molecule | binding
1 | HNRNPA/B (from UniProt Q99729 1-332) | binds
2 | B1 | binds
